# Source: the supplement of paper PMC8728848
# The list shows a part of the results.
# B1: Erv41-EDTA (Saccharomyces cerevisiae), Q04651 (protein)
# chain: MKFLVNVALVFMVVYISYIYAAAPEHHHHHHDYDIPTTENLYFQGAMGYIDQQYVVDSQVRDTVQINMDIYVNTKCDWLQINVRDQTMDRKLVLEELQLEEMPFFIPYDTKVNDINEIITPELDEILGEAIPAEFREKLDTRSFFDESDPNKAHLPEFNGCHVFGSIPVNRVSGELQITAKSLGYVASRKAPLEELKFNHVINEFSFGDFYPYIDNPLDNTAQFNQDEPLTTYVYYTSVVPTLFKKLGAEVDTNQYSVNDYRYLYKDVAAKGDKMPGIFFKYNFEPLSIVVSDVRL
# What was measured:
# Assay in all cases: glycan array binding signal (z-score within array); higher = stronger binding
# Conditions in all cases: glycan notation: IUPAC condensed, linker removed
# Gal(a1-3)Gal(b1-4)GlcNAc = molecular target: Gal(a1-3)Gal(b1-4)GlcNAc
# How it was run: (§1)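 From the Consortium for Functional Glycomics database, 3228 arrays were curated, keeping only those whose protein sequence was available. Binding is given as a within-array Z-score averaged across arrays sharing a protein sequence and across linkers. Negative Z-scores can be read as non-binding.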
# [1] = molecular target: Gal(a1-3)Gal(b1-4)GlcNAc(b1-2)Man
# How it was run: as §1
# [2] = molecular target: Gal(a1-3)Gal(b1-4)GlcNAc(b1-2)Man(a1-3)[Gal(a1-3)Gal(b1-4)GlcNAc(b1-2)Man(a1-6)]Man(b1-4)GlcNAc(b1-4)GlcNAc
# How it was run: as §1
# [3] = molecular target: Gal(a1-3)Gal(b1-4)GlcNAc(b1-3)GalNAc
# How it was run: as §1
# [4] = molecular target: Gal(a1-3)Gal(b1-4)GlcNAc(b1-6)GalNAc
# How it was run: as §1
# [5] = molecular target: Gal(a1-3)Gal(b1-4)[Fuc(a1-3)]GlcNAc
# How it was run: as §1
# [6] = molecular target: Gal(a1-3)Gal(b1-4)[Fuc(a1-3)]GlcNAc(b1-2)Man(a1-3)[Gal(a1-3)Gal(b1-4)[Fuc(a1-3)]GlcNAc(b1-2)Man(a1-6)]Man(b1-4)GlcNAc(b1-4)GlcNAc
# How it was run: as §1
# Gal(a1-3)GalNAc = molecular target: Gal(a1-3)GalNAc
# How it was run: as §1
# [7] = molecular target: Gal(a1-3)[Gal(a1-4)]Gal(b1-4)GlcNAc
# How it was run: as §1
# [8] = molecular target: Gal(a1-4)Gal(b1-3)GlcNAc(b1-2)Man(a1-3)[Gal(a1-4)Gal(b1-3)GlcNAc(b1-2)Man(a1-6)]Man(b1-4)GlcNAc(b1-4)GlcNAc
# How it was run: as §1
# Gal(a1-4)Gal(b1-4)Glc = molecular target: Gal(a1-4)Gal(b1-4)Glc
# How it was run: as §1
# Gal(a1-4)Gal(b1-4)GlcNAc = molecular target: Gal(a1-4)Gal(b1-4)GlcNAc
# How it was run: as §1
# [9] = molecular target: Gal(a1-4)Gal(b1-4)GlcNAc(b1-2)Man(a1-3)[Gal(a1-4)Gal(b1-4)GlcNAc(b1-2)Man(a1-6)]Man(b1-4)GlcNAc(b1-4)GlcNAc
# How it was run: as §1
# [10] = molecular target: Gal(a1-4)Gal(b1-4)GlcNAc(b1-3)Gal(b1-4)Glc
# How it was run: as §1
# Gal(a1-4)GlcNAc = molecular target: Gal(a1-4)GlcNAc
# How it was run: as §1
# Gal(a1-6)Glc = molecular target: Gal(a1-6)Glc
# How it was run: as §1
# Gal(b1-2)Gal = molecular target: Gal(b1-2)Gal
# How it was run: as §1
# Gal(b1-3)Gal = molecular target: Gal(b1-3)Gal
# How it was run: as §1
# Gal(b1-3)Gal(b1-4)GlcNAc = molecular target: Gal(b1-3)Gal(b1-4)GlcNAc
# How it was run: as §1
# Gal(b1-3)GalNAc = molecular target: Gal(b1-3)GalNAc
# How it was run: as §1
# [11] = molecular target: Gal(b1-3)GalNAc(a1-3)[Fuc(a1-2)]Gal(b1-4)Glc
# How it was run: as §1
# [12] = molecular target: Gal(b1-3)GalNAc(a1-3)[Fuc(a1-2)]Gal(b1-4)GlcNAc
# How it was run: as §1
# Gal(b1-3)GalNAc(b1-3)Gal = molecular target: Gal(b1-3)GalNAc(b1-3)Gal
# How it was run: as §1
# [13] = molecular target: Gal(b1-3)GalNAc(b1-3)Gal(a1-4)Gal(b1-4)Glc
# How it was run: as §1
# [14] = molecular target: Gal(b1-3)GalNAc(b1-4)Gal(b1-4)Glc
# How it was run: as §1
# [15] = molecular target: Gal(b1-3)GalNAc(b1-4)[Neu5Ac(a2-3)]Gal(b1-4)Glc
# How it was run: as §1
# Gal(b1-3)GlcNAc = molecular target: Gal(b1-3)GlcNAc
# How it was run: as §1
# [16] = molecular target: Gal(b1-3)GlcNAc(a1-3)Gal(b1-4)GlcNAc
# How it was run: as §1
# [17] = molecular target: Gal(b1-3)GlcNAc(a1-6)Gal(b1-4)GlcNAc
# How it was run: as §1
# Gal(b1-3)GlcNAc(b1-2)Man = molecular target: Gal(b1-3)GlcNAc(b1-2)Man
# How it was run: as §1
# [18] = molecular target: Gal(b1-3)GlcNAc(b1-2)Man(a1-3)[Gal(b1-3)GlcNAc(b1-2)Man(a1-6)]Man(b1-4)GlcNAc(b1-4)GlcNAc
# How it was run: as §1
# [19] = molecular target: Gal(b1-3)GlcNAc(b1-2)Man(a1-3)[Gal(b1-3)GlcNAc(b1-2)Man(a1-6)]Man(b1-4)GlcNAc(b1-4)[Fuc(a1-6)]GlcNAc
# How it was run: as §1
# [20] = molecular target: Gal(b1-3)GlcNAc(b1-2)Man(a1-3)[GlcNAc(b1-4)][Gal(b1-3)GlcNAc(b1-2)Man(a1-6)]Man(b1-4)GlcNAc(b1-4)GlcNAc
# How it was run: as §1
# [21] = molecular target: Gal(b1-3)GlcNAc(b1-2)[Gal(b1-3)GlcNAc(b1-6)]Man(a1-6)[Gal(b1-3)GlcNAc(b1-2)Man(a1-3)]Man(b1-4)GlcNAc(b1-4)GlcNAc
# How it was run: as §1
# [22] = molecular target: Gal(b1-3)GlcNAc(b1-3)Gal(b1-3)GlcNAc
# How it was run: as §1
# [23] = molecular target: Gal(b1-3)GlcNAc(b1-3)Gal(b1-4)Glc
# How it was run: as §1
# [24] = molecular target: Gal(b1-3)GlcNAc(b1-3)Gal(b1-4)GlcNAc
# How it was run: as §1
binder,measurement,setting,value
B1,glycan array binding signal (z-score),Gal(a1-3)Gal(b1-4)GlcNAc,-0.563
same,glycan array binding signal (z-score),[1],-1.32
same,glycan array binding signal (z-score),[2],0.731
same,glycan array binding signal (z-score),[3],-0.713
same,glycan array binding signal (z-score),[4],1.24
same,glycan array binding signal (z-score),[5],-0.74
same,glycan array binding signal (z-score),[6],2.1
same,glycan array binding signal (z-score),Gal(a1-3)GalNAc,-0.938
same,glycan array binding signal (z-score),[7],-0.005
same,glycan array binding signal (z-score),[8],-0.424
same,glycan array binding signal (z-score),Gal(a1-4)Gal(b1-4)Glc,-0.555
same,glycan array binding signal (z-score),Gal(a1-4)Gal(b1-4)GlcNAc,0.534
same,glycan array binding signal (z-score),[9],0.57
same,glycan array binding signal (z-score),[10],-0.832
same,glycan array binding signal (z-score),Gal(a1-4)GlcNAc,-0.335
same,glycan array binding signal (z-score),Gal(a1-6)Glc,-0.073
same,glycan array binding signal (z-score),Gal(b1-2)Gal,-1.22
same,glycan array binding signal (z-score),Gal(b1-3)Gal,-0.128
same,glycan array binding signal (z-score),Gal(b1-3)Gal(b1-4)GlcNAc,0.071
same,glycan array binding signal (z-score),Gal(b1-3)GalNAc,-0.207
same,glycan array binding signal (z-score),[11],-0.437
same,glycan array binding signal (z-score),[12],-0.134
same,glycan array binding signal (z-score),Gal(b1-3)GalNAc(b1-3)Gal,0.313
same,glycan array binding signal (z-score),[13],1.08
same,glycan array binding signal (z-score),[14],0.117
same,glycan array binding signal (z-score),[15],0.526
same,glycan array binding signal (z-score),Gal(b1-3)GlcNAc,0.332
same,glycan array binding signal (z-score),[16],0.101
same,glycan array binding signal (z-score),[17],0.822
same,glycan array binding signal (z-score),Gal(b1-3)GlcNAc(b1-2)Man,1.05
same,glycan array binding signal (z-score),[18],0.323
same,glycan array binding signal (z-score),[19],0.285
same,glycan array binding signal (z-score),[20],0.595
same,glycan array binding signal (z-score),[21],-0.849
same,glycan array binding signal (z-score),[22],-0.351
same,glycan array binding signal (z-score),[23],-0.747
same,glycan array binding signal (z-score),[24],-0.105

# 2 neighbouring entries already listed:
binder,measurement,setting,value
B1,glycan array binding signal (z-score),[12],-0.134
same,glycan array binding signal (z-score),Gal(b1-3)GalNAc(b1-3)Gal,0.313
